Our source for the binding values is PMC10642216.

Sequences of proteins named here, by UniProt entry; tags and fusion partners are left off. A change or cut given only in a name is not applied to a line headed by its entry.
UniProt F4IE83: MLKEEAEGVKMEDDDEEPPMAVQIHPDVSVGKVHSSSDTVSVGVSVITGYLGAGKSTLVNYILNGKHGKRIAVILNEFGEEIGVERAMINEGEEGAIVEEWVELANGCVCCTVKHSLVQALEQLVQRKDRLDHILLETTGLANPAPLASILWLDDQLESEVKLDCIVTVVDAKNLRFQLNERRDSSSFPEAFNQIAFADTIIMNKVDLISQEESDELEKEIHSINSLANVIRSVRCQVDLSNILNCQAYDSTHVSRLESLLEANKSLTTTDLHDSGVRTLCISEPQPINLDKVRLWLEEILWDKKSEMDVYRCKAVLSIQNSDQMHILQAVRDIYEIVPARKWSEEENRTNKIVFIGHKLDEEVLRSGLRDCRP

Assay [1] concerns the target T1, AtMAP1A fused with the N-terminal fragment of Venus (nVenus), BiFC construct (Arabidopsis thaliana) (UniProt Q9SLN5).
T1 sequence: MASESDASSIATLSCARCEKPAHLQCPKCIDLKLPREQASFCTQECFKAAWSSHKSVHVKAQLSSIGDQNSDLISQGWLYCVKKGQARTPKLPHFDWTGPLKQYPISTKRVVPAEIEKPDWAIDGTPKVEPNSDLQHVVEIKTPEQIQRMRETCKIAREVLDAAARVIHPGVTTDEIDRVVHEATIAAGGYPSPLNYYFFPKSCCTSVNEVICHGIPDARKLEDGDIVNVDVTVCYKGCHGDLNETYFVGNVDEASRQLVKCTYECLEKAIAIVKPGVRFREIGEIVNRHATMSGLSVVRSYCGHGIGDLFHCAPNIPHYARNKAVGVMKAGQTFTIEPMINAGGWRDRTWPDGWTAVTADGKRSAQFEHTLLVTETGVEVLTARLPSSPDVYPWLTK
As to the kind of experiment: split reporter; BiFC in A. thaliana mesophyll protoplasts; AtZNG1-cCFP and AtMAP1A-nVenus co-transfected (5 µg of each plasmid), 16 h under weak light at room temperature, confocal microscopy.

Assay [2] addresses T2, AtMAP1A (methionine aminopeptidase type I), yeast two-hybrid fusion (Arabidopsis thaliana) (UniProt Q9SLN5).
T2 sequence: T1 sequence
As to the kind of experiment: two-hybrid; ProQuest Two-Hybrid System in yeast; reporters HIS3 (with 3AT), URA3 (5FOA) and lacZ (X-gal); full-length cDNAs in pDEST22 and pDEST32, reciprocal combinations as prey and bait for each pair.

The target of assay [3] is T3, AtMAP2A (type II methionine aminopeptidase), yeast two-hybrid fusion (Arabidopsis thaliana) (UniProt Q9FV49).
T3 sequence: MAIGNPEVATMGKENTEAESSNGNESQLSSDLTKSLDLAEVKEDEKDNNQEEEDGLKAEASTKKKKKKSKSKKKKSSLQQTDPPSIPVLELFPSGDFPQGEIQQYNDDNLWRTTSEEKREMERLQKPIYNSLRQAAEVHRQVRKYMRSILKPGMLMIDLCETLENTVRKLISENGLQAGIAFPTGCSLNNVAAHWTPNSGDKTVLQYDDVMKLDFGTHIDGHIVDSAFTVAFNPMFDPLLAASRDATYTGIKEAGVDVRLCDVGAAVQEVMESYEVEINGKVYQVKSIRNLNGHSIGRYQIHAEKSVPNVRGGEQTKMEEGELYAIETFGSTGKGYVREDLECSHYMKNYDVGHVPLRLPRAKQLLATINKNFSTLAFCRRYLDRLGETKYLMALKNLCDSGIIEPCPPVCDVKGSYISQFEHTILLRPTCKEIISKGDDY
The assay is described as above.

Assay [4] deals with T4, AtMAP2B (type II methionine aminopeptidase), yeast two-hybrid fusion (Arabidopsis thaliana) (UniProt Q56Y85).
T4 sequence: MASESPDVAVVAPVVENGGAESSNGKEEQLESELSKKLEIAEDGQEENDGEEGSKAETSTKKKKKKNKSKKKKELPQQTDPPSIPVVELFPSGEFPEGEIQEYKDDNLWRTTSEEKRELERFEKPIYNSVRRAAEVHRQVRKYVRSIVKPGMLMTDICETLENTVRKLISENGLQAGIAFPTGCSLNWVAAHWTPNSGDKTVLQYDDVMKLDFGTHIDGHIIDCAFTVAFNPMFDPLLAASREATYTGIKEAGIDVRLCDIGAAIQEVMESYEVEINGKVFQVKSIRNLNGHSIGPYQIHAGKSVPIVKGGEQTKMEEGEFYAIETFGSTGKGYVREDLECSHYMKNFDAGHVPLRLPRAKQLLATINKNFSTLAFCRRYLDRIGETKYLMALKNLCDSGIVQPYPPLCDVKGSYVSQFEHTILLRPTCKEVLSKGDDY
The assay is described as above.

Assay [5] has as its target T5, AtMAP1B (plastid-localized methionine aminopeptidase type I), yeast two-hybrid fusion (Arabidopsis thaliana) (UniProt Q9FV51).
T5 sequence: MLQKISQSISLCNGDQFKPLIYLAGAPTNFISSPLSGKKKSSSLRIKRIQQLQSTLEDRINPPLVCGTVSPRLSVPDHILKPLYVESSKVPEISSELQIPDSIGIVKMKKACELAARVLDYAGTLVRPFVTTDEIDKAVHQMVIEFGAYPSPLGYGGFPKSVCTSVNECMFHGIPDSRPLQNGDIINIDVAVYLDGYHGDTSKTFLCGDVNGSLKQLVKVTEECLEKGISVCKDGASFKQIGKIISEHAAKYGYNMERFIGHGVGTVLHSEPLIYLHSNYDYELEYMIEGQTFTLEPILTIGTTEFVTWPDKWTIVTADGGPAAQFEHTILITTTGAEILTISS
The description is as above.

For assay [6], the target named is T6, AtMAP1C (plastid-localized methionine aminopeptidase type I), yeast two-hybrid fusion (Arabidopsis thaliana) (UniProt Q9FV52).
T6 sequence: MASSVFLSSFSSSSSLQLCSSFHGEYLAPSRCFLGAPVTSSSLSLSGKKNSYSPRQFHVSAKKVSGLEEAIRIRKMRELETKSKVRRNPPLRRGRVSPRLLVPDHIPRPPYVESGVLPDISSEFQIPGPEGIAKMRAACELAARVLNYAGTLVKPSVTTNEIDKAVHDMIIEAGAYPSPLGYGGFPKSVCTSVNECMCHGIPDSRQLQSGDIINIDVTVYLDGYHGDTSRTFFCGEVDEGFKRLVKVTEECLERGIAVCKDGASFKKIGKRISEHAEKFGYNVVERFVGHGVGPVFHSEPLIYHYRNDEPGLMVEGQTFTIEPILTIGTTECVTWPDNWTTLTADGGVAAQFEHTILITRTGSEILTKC
The description is as above.

In assay [7] the target is T7, AtMAP1D (plastid-localized methionine aminopeptidase type I), yeast two-hybrid fusion (Arabidopsis thaliana) (UniProt Q9FV50).
T7 sequence: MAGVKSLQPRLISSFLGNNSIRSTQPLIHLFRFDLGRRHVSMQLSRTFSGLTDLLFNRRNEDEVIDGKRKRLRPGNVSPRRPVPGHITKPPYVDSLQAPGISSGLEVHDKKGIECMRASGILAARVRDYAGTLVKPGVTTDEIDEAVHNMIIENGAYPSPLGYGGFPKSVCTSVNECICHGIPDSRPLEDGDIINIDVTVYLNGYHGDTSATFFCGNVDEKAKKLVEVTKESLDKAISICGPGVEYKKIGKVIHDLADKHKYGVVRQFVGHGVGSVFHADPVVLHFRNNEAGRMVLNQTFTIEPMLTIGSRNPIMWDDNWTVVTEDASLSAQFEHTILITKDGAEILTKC
The assay is described as above.

These are yes or no findings as the source states them, for the method shown. For some of these results: Binding can be weak; no strength is given. Tags and fused reporters may be left off the sequences shown. For some of these results: Binding seen in cells or lysates may run through a third protein.

In the case of “AtZNG1 fused to the C-terminal fragment of Cerulean (cCFP), BiFC construct (from UniProt F4IE83)”, in assay [1], the binding result is on record as “binds”.

With “AtZNG1 (Zn-regulated GTPase metalloprotein activator 1), yeast two-hybrid fusion (Arabidopsis thaliana)”, the binding entry is “binds” in assay [2], “no binding” in assay [3] and “no binding” in assay [4].

Turning to “AtZNG2A2, yeast two-hybrid fusion (Arabidopsis thaliana)”, the binding result in assay [5], in assay [6] and in assay [7] was “no binding” each time.

Turning to “AtZNG2A1, yeast two-hybrid fusion (Arabidopsis thaliana)”, the binding result in assay [5], in assay [6] and in assay [7] was “no binding” in each case.
